Earlier results as cited in patent publication US20230136997A1, “TARGETING ABCB5 IN GLIOBLASTOMA MULTIFORME” (Children's Medical Center Corporation, priority 2020, published 2023).
At least one compound was matched to its structure with a doubt left.

Tested on: GBM
Settings: Woo et al. 2015

Structure (SMILES): Cn1nnc2c(C(N)=O)ncn2c1=O [TMZ, temozolomide]
- patients that respond to TMZ therapy: less than 50%
